Test results from PubChem BioAssay AID540256 (National Center for Advancing Translational Sciences (NCATS), 2011).
About 3,700 (1.2%) of roughly 300,000 compounds were called active. This list was built around the results that the source calls inconclusive (neither active nor inactive); the mix of calls is not that of the screen. Calls come from the whole dose curve; tested in HEK293 cells. Where the call is inconclusive, the potency comes from a doubtful curve fit.

experiment: qHTS for Inhibitors of binding or entry into cells for Lassa Virus; settings: Lassa virus pseudotype entry inhibition, cell reporter; series mostly up to 37.9 µM; note: nearly all actives have a fitted effect of over 50% in size
Potency is the fitted concentration of half-maximal effect.

Row | SMILES | Potency
1 | COc1ccccc1N1CCN(S(=O)(=O)c2ccc(F)c(C(=O)Nc3ccc(C)c(F)c3)c2)CC1 | inconclusive: 1.78 µM [inhibitor, partial curve, poor fit]
2 | COc1cccc(C(=O)N2c3ccccc3Sc3ccccc32)c1 | inconclusive: 22.4 µM [inhibitor, single point]
3 | O=C(CCCOc1ccc(Cl)cc1Cl)N/N=C/c1ccc(Cl)cc1 | inconclusive: 35.5 µM [inhibitor, single point]
4 | CC1=CC(C)(C)Nc2ccc(OC(=O)C(Cc3ccccc3)N3C(=O)c4ccccc4C3=O)cc21 (centres undefined) | active: 5.01 µM
5 | COc1ccc(NC(=O)c2ccco2)cc1NC(=O)COc1cc(C)cc(C)c1 | inconclusive: 17.8 µM [inhibitor, single point]
6 | Cc1ccc(-c2nc(-c3ccncc3)no2)cc1C | inconclusive: 8.91 µM [inhibitor, partial curve, poor fit]
7 | Cc1ccc(-c2cc(C(=O)NCCc3ccccn3)c3ccccc3n2)c(C)c1 | inconclusive: 14.1 µM [inhibitor, single point]
8 | O=C(CSc1ncc2c(n1)-c1ccccc1N(Cc1ccc(F)cc1)S2(=O)=O)c1ccc(Br)cc1 | inconclusive: 35.5 µM [inhibitor, single point]
9 | Cc1ccc(OCCC(=O)N(Cc2ccccc2)c2c(N)n(Cc3ccccc3)c(=O)[nH]c2=O)cc1 | inconclusive: 0.794 µM [inhibitor, partial curve, poor fit]
10 | CC1CC2=C(C(=O)O1)C(c1ccc(Cl)cc1)Nc1ccccc1N2 (centres undefined) | inconclusive: 1.26 µM [activator, partial curve, poor fit]
11 | CCCN1CCN(CCNC(=O)Nc2cc(OC)cc(OC)c2)CC1 | inconclusive: 11.2 µM [activator, partial curve, poor fit]
12 | Cc1ccc(OC(=O)c2snnc2C)cc1C | inactive
13 | CC(C)Cn1c(N)c(C(=O)COC(=O)CC23CC4CC(CC(C4)C2)C3)c(=O)n(C)c1=O | active: 1.78 µM
14 | Cc1cccc(C)c1OCCNC(=O)C(=O)NCc1ccco1 | inconclusive: 1.78 µM [inhibitor, full curve]
15 | N#CC(Sc1ccccn1)c1ccc(Cl)cc1 (centres undefined) | inconclusive: 35.5 µM [inhibitor, partial curve, poor fit]
16 | Cc1ccc(CN2CCNC(=O)C2CC(=O)N(C)CCc2ccccc2)cc1 (centres undefined) | inconclusive: 7.94 µM [inhibitor, partial curve, poor fit]
17 | CCNc1nnc(-c2ccccc2OC)s1 | inactive
18 | Brc1cc(Br)c2nc(-c3cccs3)ccc2c1 | inconclusive: 18.3 µM [activator, single point]
19 | COc1ccc(C2c3c(n(C)c4ccccc34)C(=O)N2CC(=O)Nc2ccc(Cl)cc2)cc1 (centres undefined) | inactive
20 | CCc1ccc(N2CCn3c2nc2c3c(=O)n(Cc3cccc(C)c3)c(=O)n2C)cc1 | inactive
21 | Cc1cccc(N2CCN(C(=O)c3ccncc3)CC2C)c1 (centres undefined) | inconclusive: 16.4 µM [inhibitor, partial curve, poor fit]
22 | O=[N+]([O-])c1cccc(C=Nc2cccc3ccccc23)c1O | inactive
23 | COc1cc(OC)c(NC(=O)CCCn2c(=O)oc3ccccc32)cc1Cl | inactive

Row | SMILES | Potency
24 | CCN(CC)c1ccc(NS(=O)(=O)c2ccc3c(c2)CCCN3C(C)=O)c(C)c1 | inconclusive: 1 µM [inhibitor, full curve, poor fit]
25 | COC1C(OC(=O)/C=C/C=C/C=C/C=C/C(=O)O)CCC2(CO2)C1C1(C)OC1CC=C(C)C (centres undefined) (tested in a mixture with another compound) | inactive
26 | Cc1ccc(N(CC(=O)NCc2ccccn2)S(=O)(=O)c2ccccc2)cc1Cl | inconclusive: 35.5 µM [inhibitor, single point]
27 | O=S(=O)(c1ccc(S(=O)(=O)N2CCCN(Cc3ccccc3)C2)cc1)N1CCCCCC1 | inconclusive: 23.1 µM [inhibitor, single point]
28 | Cc1cc(/C=C(\C#N)C(=O)NC2CC2)c(C)[nH]1 | inconclusive: 2.82 µM [activator, partial curve, poor fit]
29 | O=C(OCc1ccc([N+](=O)[O-])cc1)c1cc(=O)c2ccccc2o1 | inactive
30 | O=C(C1CCC1)N1CCc2cc(S(=O)(=O)NCc3cccnc3)ccc21 | inconclusive: 7.3 µM [inhibitor, partial curve, poor fit]
31 | COCCNC(=O)c1noc2c1CCc1cc(OC)ccc1-2 | inconclusive: 18.3 µM [inhibitor, partial curve, poor fit]
32 | CCCCCOC(=O)c1ccccc1C(=O)O | inconclusive: 1.3 µM [inhibitor, full curve, poor fit]
33 | C=CCN(c1ccccc1OC)S(=O)(=O)c1cccc(C(=O)Nc2nnc(C3CC3)s2)c1 | inconclusive: 8.91 µM [inhibitor, partial curve, poor fit]
34 | O=C(N/N=C/C=C\c1ccco1)c1cccnc1 | inactive
35 | COc1ccc(/C=N\NC(=O)c2cccc(F)c2)cc1COc1ccccc1 | inactive
36 | CCN(CC)c1ccc(CNCc2cccs2)cc1 | inconclusive: 0.631 µM [inhibitor, full curve, poor fit]
37 | COc1ccc(-c2oc3ncn4nc(-c5ccc(Cl)cc5)nc4c3c2-c2ccc(OC)cc2)cc1 | inactive
38 | CN(Cc1c(F)cccc1Cl)C(=O)C1CC(=O)N(CCc2ccccc2)C1 (centres undefined) | inconclusive: 20 µM [inhibitor, partial curve, poor fit]
39 | COc1cc2c(cc1OC)C(c1ccc(Cl)cc1)N(c1ccc(C)c(F)c1)C(=O)C2 (centres undefined) | inconclusive: 35.5 µM [inhibitor, partial curve, poor fit]
40 | CCN(CC)CCN(C(=O)c1ccco1)c1nc2c(C)cccc2s1 | inactive
41 | COc1ccc(OC2C(=O)N(c3ccc(F)cc3)C2c2ccc(OC)c(OC)c2)cc1 (centres undefined) | inactive
42 | COC(=O)CCCC(=O)N1CCC(CCC(=O)NCc2ccc(F)cc2)CC1 | inactive
43 | Cc1occc1C(=O)N(C)Cc1nc(-c2ccc(Cl)cc2)no1 | inconclusive: 12.6 µM [inhibitor, single point]
44 | CCOC(=O)c1ccc(CSc2nnc3cc(C)c4ccccc4n23)cc1 | inconclusive: 11.2 µM [activator, partial curve, poor fit]
45 | COc1ccccc1NC(=O)CN(c1ccc(C(C)C)cc1)S(=O)(=O)c1c(C)noc1C | inactive
46 | COc1ccc(C(CNC(=O)c2oc3ccccc3c2C)N2CCCC2)cc1 (centres undefined) | inconclusive: 15.8 µM [inhibitor, single point]

Single entries from the results shown.
In Potency, CCN(CC)c1ccc(CNCc2cccs2)cc1 has inconclusive: 0.631 µM [inhibitor, full curve, poor fit]
In Potency, Cc1ccc(N(CC(=O)NCc2ccccn2)S(=O)(=O)c2ccccc2)cc1Cl has inconclusive: 35.5 µM [inhibitor, single point]
In Potency, O=C(C1CCC1)N1CCc2cc(S(=O)(=O)NCc3cccnc3)ccc21 has inconclusive: 7.3 µM [inhibitor, partial curve, poor fit]
In Potency, CN(Cc1c(F)cccc1Cl)C(=O)C1CC(=O)N(CCc2ccccc2)C1 (centres undefined) has inconclusive: 20 µM [inhibitor, partial curve, poor fit]

Next part

Row | SMILES | Potency
47 | CCc1ccc(Nc2cc(C)nc3nc(Cc4ccc(Cl)cc4)nn23)cc1 | inconclusive: 3.55 µM [inhibitor, full curve]
48 | O=C(Nc1c(F)cccc1F)C(c1ccccc1)c1ccccc1 | inactive
49 | O=C(Nc1ccc2c(c1)CCC2)c1cnccn1 | inconclusive: 29.1 µM [inhibitor, single point]
50 | COc1ccc(OCC(=O)Nc2cc(-c3cccc(Cl)c3)nn2-c2ccccc2)cc1 | inactive
51 | COc1ccccc1-c1nnc2sc(COc3ccc(F)cc3)nn12 | inactive
52 | CC(C)(C)c1ccc(-c2noc(CCC(N)=O)n2)cc1 | inconclusive: 1.83 µM [inhibitor, full curve]
53 | Cn1nc(CC(=O)Nc2ccc3c(c2)OCCO3)c2ccccc2c1=O | inactive
54 | CCNC(=O)CP(=O)(c1ccccc1)c1ccccc1 | inactive
55 | Cc1ccc(Nc2nc(C(=O)NCc3ccco3)cs2)cc1 | inconclusive: 16.4 µM [inhibitor, partial curve, poor fit]
56 | Cc1cc(C)n(C(=O)CNC(=O)c2ccc3c(c2)OCCO3)n1 | inactive
57 | Cc1[nH]c2ccccc2c1C(=O)COC(=O)C1CC(=O)N(Cc2ccco2)C1 (centres undefined) | inactive
58 | Cc1cccc(-c2noc(CCC(=O)NCc3ccccc3)n2)c1 | inconclusive: 0.82 µM [inhibitor, full curve, poor fit]
59 | Cc1ccc(CSc2nc(=O)c3c(n2C)NC(=O)CC3c2ccc(OC(C)C)cc2)cc1 (centres undefined) | inactive
60 | Nn1c(SCc2ccccc2)nnc1C1CCCCC1 | inconclusive: 20 µM [activator, partial curve, poor fit]
61 | COc1ccc(N2CC(C(=O)OCC(=O)Nc3cccc(C)c3)CC2=O)cc1 (centres undefined) | inconclusive: 3.16 µM [inhibitor, single point]
62 | CCCCCNC(=O)C(=O)NCC(c1ccc2c(c1)OCO2)N1CCOCC1 (centres undefined) | inactive
63 | C1CN(c2nc3nonc3nc2N2C[C@H]3CC[C@H]2C3)CCS1 | inconclusive: 20 µM [activator, partial curve, poor fit]
64 | Nc1nc(SCc2ccccc2)c2ncn(C3CCCO3)c2n1 (centres undefined) | inconclusive: 22.4 µM [inhibitor, partial curve, poor fit]
65 | CCOC(=O)C1=C(C)NC(=S)NC1c1ccc(-c2ccc(Cl)cc2)o1 (centres undefined) | inactive
66 | C=C(C)CN(CC)c1nc(N)c2c(N)nc3c(c2c1C#N)CC(=O)N3C12CC3CC(CC(C3)C1)C2 | inconclusive: 2.82 µM [inhibitor, full curve, poor fit]
67 | COc1ccc(/C=C2\SC(=S)N(CCCC(=O)N3CCN(C)CC3)C2=O)cc1 | inconclusive: 3.55 µM [inhibitor, partial curve, poor fit]
68 | N/C(=N\OC(=O)CCC1CCCC1)c1ccccn1 | inactive
69 | Cc1ccc2oc(=O)c3cc(C(=O)N(Cc4ccccc4)C(C)C)sc3c2c1 | inconclusive: 35.5 µM [activator, partial curve, poor fit]
